Measured values published in doi:10.64898/2025.12.02.691793.
No constants are given. Whether binding was seen depends on the method and setting. Binding seen in cells or lysates may run through a third protein. Some entries that bind do so weakly or less than the wild type.

Amino acid sequences for entries named in this document (tags omitted). A change or cut given only in a name is not applied to a line headed by its entry.
UniProt P0C0S5: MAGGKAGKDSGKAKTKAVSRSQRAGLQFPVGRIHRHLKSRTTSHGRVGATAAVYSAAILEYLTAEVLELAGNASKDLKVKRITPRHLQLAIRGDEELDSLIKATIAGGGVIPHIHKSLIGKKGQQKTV
UniProt Q9Y4A5: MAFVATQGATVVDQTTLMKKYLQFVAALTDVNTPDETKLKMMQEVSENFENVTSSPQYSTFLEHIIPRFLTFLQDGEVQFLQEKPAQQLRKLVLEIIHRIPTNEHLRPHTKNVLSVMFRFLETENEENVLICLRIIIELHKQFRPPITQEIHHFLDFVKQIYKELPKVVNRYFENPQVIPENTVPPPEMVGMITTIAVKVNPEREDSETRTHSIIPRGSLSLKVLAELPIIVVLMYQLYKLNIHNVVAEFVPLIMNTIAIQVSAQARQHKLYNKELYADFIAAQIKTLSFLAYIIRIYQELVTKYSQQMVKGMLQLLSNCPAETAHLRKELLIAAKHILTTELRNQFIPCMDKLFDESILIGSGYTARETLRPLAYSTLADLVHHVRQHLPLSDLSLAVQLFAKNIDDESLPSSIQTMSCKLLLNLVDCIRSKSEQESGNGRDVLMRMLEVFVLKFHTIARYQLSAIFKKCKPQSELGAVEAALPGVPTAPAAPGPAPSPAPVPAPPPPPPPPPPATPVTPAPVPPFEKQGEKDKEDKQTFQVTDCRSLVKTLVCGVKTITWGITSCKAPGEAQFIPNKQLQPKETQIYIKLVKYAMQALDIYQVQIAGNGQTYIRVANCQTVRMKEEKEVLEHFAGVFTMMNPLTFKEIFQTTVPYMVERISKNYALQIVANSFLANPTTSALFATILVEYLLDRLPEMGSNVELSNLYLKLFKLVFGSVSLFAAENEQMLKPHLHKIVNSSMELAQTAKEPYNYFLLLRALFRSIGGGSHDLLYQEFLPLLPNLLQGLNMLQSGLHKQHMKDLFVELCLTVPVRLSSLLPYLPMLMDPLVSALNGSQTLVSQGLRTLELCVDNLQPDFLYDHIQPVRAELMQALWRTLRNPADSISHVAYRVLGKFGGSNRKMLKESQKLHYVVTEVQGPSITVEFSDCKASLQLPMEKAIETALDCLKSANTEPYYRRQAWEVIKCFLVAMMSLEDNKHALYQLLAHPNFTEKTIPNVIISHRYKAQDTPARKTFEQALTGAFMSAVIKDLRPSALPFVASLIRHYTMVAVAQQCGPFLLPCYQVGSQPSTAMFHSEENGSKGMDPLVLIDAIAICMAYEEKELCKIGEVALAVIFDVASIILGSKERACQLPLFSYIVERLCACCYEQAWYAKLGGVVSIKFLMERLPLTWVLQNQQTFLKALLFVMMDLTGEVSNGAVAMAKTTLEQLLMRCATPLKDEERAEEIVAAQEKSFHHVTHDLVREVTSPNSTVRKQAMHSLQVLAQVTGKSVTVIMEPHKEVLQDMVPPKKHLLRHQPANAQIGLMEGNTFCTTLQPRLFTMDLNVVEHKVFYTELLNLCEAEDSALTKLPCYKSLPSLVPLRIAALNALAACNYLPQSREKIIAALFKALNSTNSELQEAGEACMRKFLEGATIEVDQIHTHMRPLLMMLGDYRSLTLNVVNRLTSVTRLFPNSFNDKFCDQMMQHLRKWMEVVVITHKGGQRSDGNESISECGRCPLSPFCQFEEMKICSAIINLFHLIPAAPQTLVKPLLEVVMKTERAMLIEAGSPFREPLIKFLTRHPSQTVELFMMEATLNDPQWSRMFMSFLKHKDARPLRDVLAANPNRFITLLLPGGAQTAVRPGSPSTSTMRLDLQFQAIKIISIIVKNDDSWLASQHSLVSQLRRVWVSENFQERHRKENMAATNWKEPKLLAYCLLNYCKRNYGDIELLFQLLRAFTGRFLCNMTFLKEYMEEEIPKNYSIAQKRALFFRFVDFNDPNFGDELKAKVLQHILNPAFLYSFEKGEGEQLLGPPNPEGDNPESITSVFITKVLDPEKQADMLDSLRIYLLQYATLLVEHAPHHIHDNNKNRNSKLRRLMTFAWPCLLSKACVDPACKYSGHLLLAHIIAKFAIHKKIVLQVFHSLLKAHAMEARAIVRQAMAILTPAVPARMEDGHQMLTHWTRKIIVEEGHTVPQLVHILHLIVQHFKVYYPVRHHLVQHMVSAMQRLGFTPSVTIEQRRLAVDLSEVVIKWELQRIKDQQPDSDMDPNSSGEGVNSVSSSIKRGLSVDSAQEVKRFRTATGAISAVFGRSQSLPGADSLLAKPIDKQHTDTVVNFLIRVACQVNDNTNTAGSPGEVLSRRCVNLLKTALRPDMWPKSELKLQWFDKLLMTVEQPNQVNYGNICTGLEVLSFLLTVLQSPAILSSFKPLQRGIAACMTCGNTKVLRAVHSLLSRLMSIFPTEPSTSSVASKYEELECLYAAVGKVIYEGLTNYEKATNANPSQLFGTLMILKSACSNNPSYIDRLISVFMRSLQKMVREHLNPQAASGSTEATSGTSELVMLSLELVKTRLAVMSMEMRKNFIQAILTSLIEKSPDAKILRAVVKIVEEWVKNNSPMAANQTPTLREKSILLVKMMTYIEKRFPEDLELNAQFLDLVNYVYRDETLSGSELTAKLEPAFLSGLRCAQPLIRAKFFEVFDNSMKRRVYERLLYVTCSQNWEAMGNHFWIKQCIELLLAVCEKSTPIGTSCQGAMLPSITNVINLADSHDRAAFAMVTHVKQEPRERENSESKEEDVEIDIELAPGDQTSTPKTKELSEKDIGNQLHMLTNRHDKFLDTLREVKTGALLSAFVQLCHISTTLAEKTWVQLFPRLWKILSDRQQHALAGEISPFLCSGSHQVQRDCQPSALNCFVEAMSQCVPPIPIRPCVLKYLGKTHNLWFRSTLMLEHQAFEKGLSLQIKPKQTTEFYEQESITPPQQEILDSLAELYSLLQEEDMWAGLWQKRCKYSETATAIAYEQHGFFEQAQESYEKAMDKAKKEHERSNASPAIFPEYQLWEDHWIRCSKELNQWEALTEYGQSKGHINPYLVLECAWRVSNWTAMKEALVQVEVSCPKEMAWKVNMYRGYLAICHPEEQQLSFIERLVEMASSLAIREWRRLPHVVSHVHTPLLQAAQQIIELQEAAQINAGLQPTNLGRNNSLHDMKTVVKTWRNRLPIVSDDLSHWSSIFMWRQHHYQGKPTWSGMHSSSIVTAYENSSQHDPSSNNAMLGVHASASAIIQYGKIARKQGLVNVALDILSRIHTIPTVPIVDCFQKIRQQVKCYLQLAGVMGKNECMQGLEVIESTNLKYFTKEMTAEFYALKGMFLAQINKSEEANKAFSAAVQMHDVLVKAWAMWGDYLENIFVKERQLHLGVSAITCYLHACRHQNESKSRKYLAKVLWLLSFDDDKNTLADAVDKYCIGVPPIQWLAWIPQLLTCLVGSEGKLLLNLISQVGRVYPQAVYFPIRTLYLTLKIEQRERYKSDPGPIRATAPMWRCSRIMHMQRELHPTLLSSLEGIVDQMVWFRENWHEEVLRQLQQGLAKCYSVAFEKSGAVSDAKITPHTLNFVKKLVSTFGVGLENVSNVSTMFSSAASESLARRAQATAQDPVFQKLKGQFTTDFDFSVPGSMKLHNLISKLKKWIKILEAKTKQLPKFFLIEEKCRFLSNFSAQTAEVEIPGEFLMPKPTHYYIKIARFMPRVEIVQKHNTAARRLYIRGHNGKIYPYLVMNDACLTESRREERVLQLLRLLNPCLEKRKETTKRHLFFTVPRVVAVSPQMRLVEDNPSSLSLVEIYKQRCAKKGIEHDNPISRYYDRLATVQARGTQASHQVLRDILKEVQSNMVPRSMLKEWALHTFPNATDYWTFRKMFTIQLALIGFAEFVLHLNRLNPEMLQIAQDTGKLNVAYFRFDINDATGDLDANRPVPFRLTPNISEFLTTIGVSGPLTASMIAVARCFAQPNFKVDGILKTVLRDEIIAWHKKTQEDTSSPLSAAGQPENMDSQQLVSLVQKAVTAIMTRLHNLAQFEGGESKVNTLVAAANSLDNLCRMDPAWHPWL

What was measured:
[1] = target: T1, Transcriptional Intermediary Factor 1γ (TIF1γ) (human (endogenous in HSC-3 and HSC-4)) (UniProt Q9UPN9); test: co-IP
T1 sequence: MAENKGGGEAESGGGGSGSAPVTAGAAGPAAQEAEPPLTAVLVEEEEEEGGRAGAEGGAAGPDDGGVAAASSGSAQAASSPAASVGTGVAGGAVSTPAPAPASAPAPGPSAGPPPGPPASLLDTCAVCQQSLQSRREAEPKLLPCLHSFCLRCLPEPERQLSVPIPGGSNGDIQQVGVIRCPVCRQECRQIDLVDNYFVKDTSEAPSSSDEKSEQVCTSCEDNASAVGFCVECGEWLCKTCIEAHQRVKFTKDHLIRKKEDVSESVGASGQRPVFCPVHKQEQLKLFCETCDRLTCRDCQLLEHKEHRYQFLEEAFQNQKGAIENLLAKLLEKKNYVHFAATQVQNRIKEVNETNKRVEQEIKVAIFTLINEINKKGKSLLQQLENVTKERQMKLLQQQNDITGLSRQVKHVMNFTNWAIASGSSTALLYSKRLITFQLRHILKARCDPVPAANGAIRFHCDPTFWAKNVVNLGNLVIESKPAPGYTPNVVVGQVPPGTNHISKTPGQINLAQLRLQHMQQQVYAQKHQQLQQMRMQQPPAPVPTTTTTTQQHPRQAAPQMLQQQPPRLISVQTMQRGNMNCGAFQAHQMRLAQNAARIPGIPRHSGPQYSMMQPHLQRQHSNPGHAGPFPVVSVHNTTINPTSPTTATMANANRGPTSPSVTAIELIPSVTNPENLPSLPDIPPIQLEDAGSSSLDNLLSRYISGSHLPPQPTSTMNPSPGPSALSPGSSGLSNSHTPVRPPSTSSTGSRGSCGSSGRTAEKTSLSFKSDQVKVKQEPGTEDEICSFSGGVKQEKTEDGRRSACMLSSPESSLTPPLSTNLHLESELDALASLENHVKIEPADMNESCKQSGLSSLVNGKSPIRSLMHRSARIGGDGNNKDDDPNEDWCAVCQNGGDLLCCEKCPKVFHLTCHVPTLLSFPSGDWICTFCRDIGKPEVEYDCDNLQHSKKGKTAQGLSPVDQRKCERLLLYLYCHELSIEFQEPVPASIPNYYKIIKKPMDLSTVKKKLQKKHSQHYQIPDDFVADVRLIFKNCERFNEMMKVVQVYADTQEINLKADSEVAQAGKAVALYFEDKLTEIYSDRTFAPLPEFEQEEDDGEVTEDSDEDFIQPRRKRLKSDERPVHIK

[2] = target: T1, Transcriptional Intermediary Factor 1γ (TIF1γ) (human (endogenous in HSC-3 and HSC-4)); test: FRET or BRET

| binding [1] | binding [2] | Substance |
| --- | --- | --- |
| binds | binds | H2A.Z (from UniProt P0C0S5 1-128) |
| binds | – | acetylated H2A.Z (from UniProt P0C0S5 1-128) |
| binds | binds | TRRAP (from UniProt Q9Y4A5 1-3859) |
